From PMC5302965
These are yes or no findings as the source states them, for the method shown. Binding seen in cells or lysates may run through a third protein. Some binding calls cover weakened binding; strength is not graded here.

Protein sequences, listed by entry. Tags and fused reporters are not part of them. Lines headed by an entry give the natural chain unless they say otherwise; changes in a name come on top.
UniProt P60953: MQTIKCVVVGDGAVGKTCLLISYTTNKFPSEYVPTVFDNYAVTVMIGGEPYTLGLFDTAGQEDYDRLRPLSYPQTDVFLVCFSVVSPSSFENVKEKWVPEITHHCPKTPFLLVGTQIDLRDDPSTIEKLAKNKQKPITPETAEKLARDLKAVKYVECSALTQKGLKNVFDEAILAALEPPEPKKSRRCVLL
UniProt P46940: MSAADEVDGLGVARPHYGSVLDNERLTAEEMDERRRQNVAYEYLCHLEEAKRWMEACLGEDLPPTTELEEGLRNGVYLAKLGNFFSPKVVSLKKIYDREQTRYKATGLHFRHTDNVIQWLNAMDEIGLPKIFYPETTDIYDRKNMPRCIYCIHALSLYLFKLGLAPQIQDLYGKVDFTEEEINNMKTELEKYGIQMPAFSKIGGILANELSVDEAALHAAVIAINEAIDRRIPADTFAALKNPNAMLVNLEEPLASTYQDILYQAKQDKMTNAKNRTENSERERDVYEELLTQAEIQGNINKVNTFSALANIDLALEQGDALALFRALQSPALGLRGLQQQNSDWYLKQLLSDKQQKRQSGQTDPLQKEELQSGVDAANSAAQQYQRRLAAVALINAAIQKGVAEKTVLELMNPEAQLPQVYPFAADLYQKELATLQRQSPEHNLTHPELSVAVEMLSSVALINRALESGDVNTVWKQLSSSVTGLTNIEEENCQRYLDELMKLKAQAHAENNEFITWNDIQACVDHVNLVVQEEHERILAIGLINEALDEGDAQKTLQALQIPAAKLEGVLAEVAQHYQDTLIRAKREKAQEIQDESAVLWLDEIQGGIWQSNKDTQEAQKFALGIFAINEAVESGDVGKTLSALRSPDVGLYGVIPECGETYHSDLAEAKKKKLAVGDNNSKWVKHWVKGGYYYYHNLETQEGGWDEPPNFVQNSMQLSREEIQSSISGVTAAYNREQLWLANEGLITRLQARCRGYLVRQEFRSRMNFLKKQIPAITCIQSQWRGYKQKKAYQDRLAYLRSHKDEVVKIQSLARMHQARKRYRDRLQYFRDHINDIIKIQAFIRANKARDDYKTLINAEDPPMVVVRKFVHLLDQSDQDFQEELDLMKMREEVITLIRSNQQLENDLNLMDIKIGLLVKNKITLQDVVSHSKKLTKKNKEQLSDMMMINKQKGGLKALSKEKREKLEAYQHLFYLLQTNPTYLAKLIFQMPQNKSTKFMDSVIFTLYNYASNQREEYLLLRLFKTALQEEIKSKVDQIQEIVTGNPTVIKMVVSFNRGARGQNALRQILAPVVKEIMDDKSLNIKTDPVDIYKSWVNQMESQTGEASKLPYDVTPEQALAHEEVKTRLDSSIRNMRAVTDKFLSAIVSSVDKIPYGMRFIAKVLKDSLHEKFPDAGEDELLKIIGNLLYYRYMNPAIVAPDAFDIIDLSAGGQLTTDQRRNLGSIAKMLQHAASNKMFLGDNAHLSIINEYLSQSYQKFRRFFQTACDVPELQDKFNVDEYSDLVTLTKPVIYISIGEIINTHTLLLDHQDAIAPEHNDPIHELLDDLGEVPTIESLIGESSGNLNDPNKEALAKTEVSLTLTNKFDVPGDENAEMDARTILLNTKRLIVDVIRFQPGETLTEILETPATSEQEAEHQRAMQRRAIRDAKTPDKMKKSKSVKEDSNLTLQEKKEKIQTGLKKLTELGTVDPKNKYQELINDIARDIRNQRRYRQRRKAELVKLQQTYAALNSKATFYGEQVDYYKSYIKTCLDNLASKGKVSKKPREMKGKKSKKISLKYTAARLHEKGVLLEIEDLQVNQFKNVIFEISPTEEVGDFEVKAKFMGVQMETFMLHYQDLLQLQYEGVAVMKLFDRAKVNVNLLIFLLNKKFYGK

What was measured:
[1] = molecular target: FLAG-tagged constitutively active Cdc42 (Cdc42G12V) (UniProt P60953); assay: co-IP; FLAG-Cdc42 expressing U87MG cells lysed in immunoprecipitation buffer (150mM NaCl, 50mM HEPES, 10% glycerol, 1% Triton X-100, 2mM EDTA); anti-FLAG conjugated magnetic beads, 4°C over night; washed with ice-cold PBS; immunoblotting
[2] = molecular target: FLAG-tagged dominant negative Cdc42 (Cdc42T17N) (UniProt P60953); assay: as above

binding [1]: binds
binding [2]: no binding
Substance: IQ-domain GTPase-activating protein 1 (IQGAP1) (from UniProt P46940 1-1657)
